# In PubChem BioAssay AID651640 (Broad Institute, 2012):
# Screen size: about 350,000 compounds; about 6,000 (1.7%) were called active. Inconclusive means that the source gave no clear call. Such entries were picked first, then a sample of the others. Rule as the data show it: active = CPE inhibition above about 20% (passing the limit was not always enough); inconclusive = no clear call, values can overlap the other calls; tested in BHK-21 cells. Some structures have more than one record in an assay (separate samples or runs), and their calls can disagree.
# Test: protection of cells from dengue 2 killing – plate reader, single concentration, primary screen (AID 651640);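 also: 0% = median of neutral control wells and 100% = median of positive control wells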
# Conditions: DENV2-infected cells, cytopathic effect rescue, at 9.99 µM, stronger effect = higher value
row,SMILES,CPE inhibition
1,CCC(=O)N1[C@@H]2Cn3c(ccc(-c4cncnc4)c3=O)[C@H]1[C@@H](C(=O)N1CCc3ccccc3C1)[C@@H]2CO,inconclusive: 42.6%
2,Cc1[nH]c2ccc(C(=O)NCc3ccccn3)cc2c1C,inconclusive: 20.9%
3,CCNc1nc(NC(C)CC)nc(Oc2ccc(OCC)nn2)n1 (stereo not drawn),inactive: 2.32%
4,C[C@@H]1CN([C@@H](C)CO)C(=O)Cc2cc(NC(=O)Cn3cnnn3)ccc2O[C@@H]1CN(C)Cc1ccc2c(c1)OCO2,inactive: 0.585%
5,CO[C@H]1CN(C)C(=O)c2cc(NC(=O)C3CCC3)ccc2OC[C@H](C)N(C)C[C@@H]1C,active: 72.8%
6,CCN1C(=O)c2ccccc2S(=O)c2ccc(C(=O)N3CCN(C(=O)c4ccco4)CC3)cc21 (stereo not drawn),inconclusive: 22.2%
7,O=Cc1c[nH]c2ncccc12,inconclusive: 73.2%
8,CCOc1ccc(NS(=O)(=O)c2cc(NC(=O)CCNC(=O)c3ccco3)ccc2OC)cc1,inactive: 1.74%
9,CC(C)Oc1ccc(C(=O)Nc2nnc(C3=COCCO3)o2)cc1,inconclusive: 55.2%
10,COc1ccccc1C(=O)OCC(=O)c1ccc(CNC(C)=O)s1,inconclusive: 28.7%
11,Cc1ccc2c(c1)-n1c(nc3ccccc3c1=O)C(Cc1ccc(O)cc1)NC2=O (stereo not drawn),inconclusive: 56.4%
12,CCN1CCN(S(=O)(=O)c2ccc(Cl)c(C(=O)N(C)CCOc3ccc(Cl)cc3)c2)CC1,active: 67.5%
13,COc1ccc(CNC(=O)C[C@@H]2CC[C@@H](NC(=O)c3ccc4c(c3)OCO4)[C@H](CO)O2)cc1,inactive: -2.22%
14,CC(=O)NC1C(Oc2ccccc2C)OC2COC(c3ccco3)OC2C1O (stereo not drawn),inconclusive: 58.6%
15,COc1ccc(S(=O)(=O)Nc2ccc3c(c2)CC(=O)N([C@@H](C)CO)C[C@H](C)[C@H](CN(C)C(=O)NC2CCCCC2)O3)cc1,inconclusive: 45.3%
16,C[C@@H]1CN([C@@H](C)CO)C(=O)c2c(c3ccccc3n2C)-c2ccccc2CO[C@H]1CN(C)S(=O)(=O)c1ccc(C#N)cc1,inconclusive: 72.2%
17,COc1cc(N2CCC(O)CC2)ccc1Nc1cc(Nc2ccccc2S(=O)(=O)C(C)C)c2cc[nH]c2n1,inactive: 2.31%
18,Cc1noc(C)c1S(=O)(=O)Nc1ccc2c(c1)C(=O)N([C@H](C)CO)C[C@@H](C)[C@@H](CN(C)S(=O)(=O)c1ccc(Cl)cc1)OCCCC[C@H](C)O2,inactive: 5.7%
19,Cc1cc(C)c2[nH]c(C(=O)Nc3ccc4c(c3)OCO4)cc2c1,active: 24.4%
20,Cc1ccc(S(=O)(=O)N(C)CC(=O)Oc2ccc(-c3nnco3)cc2)cc1,active: 126%
21,O=C(c1sc2cc(F)ccc2c1Cl)N1CCN(c2cccc(Cl)c2)CC1,inconclusive: 53.9%
22,CC(C)c1nnc(NC(=O)C2CCN(C(=O)Nc3ccc(Cl)cc3)CC2)s1,inactive: 3.35%
23,O=C(Nc1cc([N+](=O)[O-])ccc1N1CCCC1)c1ccccc1,inactive: -3.22%
24,C[C@H](CO)N1C[C@H](C)[C@H](CN(C)Cc2ccc(F)cc2)Oc2ncc(C#Cc3cccnc3)cc2C1=O,inactive: 3%
25,O=C(Nc1ccccc1C(=O)N1CCN(Cc2ccccc2)CC1)c1ccccc1,inconclusive: 53.7%

row,SMILES,CPE inhibition
1,CO[C@H]1CN(C)C(=O)c2ccc(NC(=O)Nc3cc(F)ccc3F)cc2OC[C@@H](C)NC[C@H]1C,inactive: -8.7%
2,COc1ccc(CN(C)C[C@@H]2Oc3ccc(NC(=O)NC(C)C)cc3CC(=O)N([C@@H](C)CO)C[C@@H]2C)cc1,inactive: -3.01%
3,COc1cccc(NC(=O)CCc2ccccc2)c1,inconclusive: 23.6%
4,Cc1[nH]c(N=Nc2ccccc2)nc1N=Nc1ccccc1,inactive: 2.17%
5,CN(C(=S)NC(=O)c1ccc(Cl)cc1)C1CCCCC1,inconclusive: 57%
6,COc1cc(/C=N/NC(=O)[C@H](Cc2c[nH]c3ccccc23)NC(=O)OCC(C)C)cc([N+](=O)[O-])c1O,inconclusive: 27.8%
7,C=CCN1C(=O)c2ccc(C(=O)OCC(=O)Nc3ccccc3OC)cc2C1=O,inactive: 2.02%
8,C[C@H](CO)N1C[C@H](C)[C@@H](CN(C)C(=O)Nc2ccc(F)cc2)Oc2ncc(-c3ccc(F)cc3)cc2C1=O,active: 23.9%
9,CC(C)CC1NC(=O)c2ccccc2-n2c1nc1ccccc1c2=O (stereo not drawn),active: 39.7%
10,CN(C)CC(=O)Nc1ccc2c(c1)[C@@H]1C[C@@H](CC(=O)NC3CCCCC3)O[C@@H](CO)[C@@H]1O2,inactive: 11.2%
11,COc1ccccc1C(=O)NCC(=O)N1CC=C(c2ccccc2)CC1,inconclusive: 39.5%
12,CCn1cc(C(=O)N(C)CC(OC)OC)c(=O)c2cc(S(=O)(=O)N3CCOCC3)ccc21,inconclusive: 69.5%
13,O=C(NCCCc1ccccc1)C(=O)NCC1OCCN1S(=O)(=O)c1ccccc1 (stereo not drawn),inconclusive: 27.2%
14,CC(C)(C)c1ccc(C(CC(=O)O)NS(=O)(=O)Cc2ccccc2)cc1 (stereo not drawn),inconclusive: 22.7%
15,O=C(c1cccnc1)N1C[C@@H]2[C@H](c3ccccc31)[C@@H](CO)N2CC1CCCC1,inactive: -9.57%
16,N=c1c2c(-c3ccccc3)c(-c3ccccc3)n(Cc3ccco3)c2ncn1CCCO,inactive: -6.8%
17,C[C@H]1CN([C@@H](C)CO)C(=O)Cc2cc(NC(=O)Cc3cn(C)c4ccccc34)ccc2O[C@@H]1CN(C)S(=O)(=O)c1cccs1,inactive: -10.2%
18,Cc1ccc(NC(=O)c2ccc3c(c2)OCCO3)cc1C,inconclusive: 27.8%
19,Cc1ccc(S(=O)(=O)N(C)C)cc1NC(=O)COC(=O)c1c(-c2ccccc2)noc1C,inconclusive: 54.3%
20,COc1ccccc1NC(=O)/C(=C\c1cccs1)NC(=O)c1ccco1,inactive: -2.31%
21,C[C@H](CO)N1C[C@H](C)[C@H](CN(C)C(=O)c2ccc(N3CCN(C)CC3)cc2)OCc2cnnn2CCCC1=O,inconclusive: 32.7%
22,C[C@H](CO)N1C[C@H](C)[C@H](CN(C)S(=O)(=O)c2cn(C)cn2)Oc2ccc(NS(=O)(=O)c3cn(C)cn3)cc2CC1=O,inactive: 15.2%
23,COCC(=O)N(C)C[C@@H]1Oc2ncc(C3=CCCCC3)cc2C(=O)N([C@@H](C)CO)C[C@H]1C,inactive: 2.45%
24,CC(C)Cc1nc2ccccc2[nH]1,inactive: 4.23%
25,CN1CCN(c2ncnc3c2ncn3[C@H]2CN(Cc3ccc(Cl)cc3)C[C@@H](CO)O2)CC1,active: 34.8%

row,SMILES,CPE inhibition
1,CCC(C)[C@H](NC(=O)[C@H](Cc1ccccc1)n1c(=O)[nH]c2ccccc2c1=O)C(=O)N1CCC[C@@H]1C(=O)O (stereo partly drawn),inconclusive: 33.3%
2,CCOC(=O)N1CCN(C(=O)CCc2ccccc2)CC1,inconclusive: 32.5%
3,O=C(C[C@H]1CC[C@@H]2[C@H](COC[C@@H](O)CN2Cc2cc(F)ccc2F)O1)NCc1ccccc1,inactive: -10.8%
4,CC(C)N(Cc1ccccc1)C(=O)CN1C(=O)NC2(CCCCCC2)C1=O,inconclusive: 50.4%
5,COCCn1cnc2c1c(=O)n(CC(=O)OCC#N)c(=O)n2Cc1ccccc1,inconclusive: 23.9%
6,CC(=O)c1c(C)nc(-c2ccc(OCC(=O)Nc3cccc(C)c3C)cc2)n1O,inactive: -3.16%
7,Cc1ccc2nc(COC(=O)c3ccc(Cl)nc3)cc(=O)n2c1,inconclusive: 67.1%
8,COC(=O)c1cccc(Oc2nc3c(c(=O)n(C)c(=O)n3C)n2C(C)C)c1,inconclusive: 23.5%
9,COc1ccc(C2=Nn3c(nnc3-c3ccccc3Cl)SC2)cc1OC1CCCC1,inconclusive: 44.2%
10,O=C(O)C(Cc1ccc(Cl)cc1)NS(=O)(=O)c1ccc(Cl)cc1 (stereo not drawn),active: 23.4%
11,COc1ccc(S(=O)(=O)N(C)C[C@H]2OCCCC[C@H](C)Oc3ccc(NC(=O)Nc4ccc(C(F)(F)F)cc4)cc3C(=O)N([C@H](C)CO)C[C@@H]2C)cc1,inactive: -9.1%
12,C[C@@H](O)C#Cc1ccc([C@@H]2[C@H](CO)N3CCCCN(C(=O)c4ccncc4)C[C@@H]23)cc1,inactive: 8.27%
13,Cc1noc(C)c1S(=O)(=O)Nc1ccc2c(c1)CC(=O)N([C@@H](C)CO)C[C@H](C)[C@H](CN(C)Cc1ccc3c(c1)OCO3)O2,inactive: 13.8%
14,CCN(C[C@H]1[C@H](c2ccc(-c3ccccc3)cc2)[C@H](CO)N1C(C)=O)C(C)=O,inactive: 16.4%
15,O=C(C[C@@H]1C[C@@H]2c3cc(NC(=O)Cc4ccncc4)ccc3O[C@@H]2[C@H](CO)O1)NCc1ccncc1,inconclusive: 26.2%
16,CNC[C@@H]1Oc2ccc(NC(=O)Nc3c(C)noc3C)cc2C(=O)N([C@@H](C)CO)C[C@H]1C,inconclusive: 27.3%
17,CC(C)(C)Nc1nc(OCC#N)nc(N2CCCCC2)n1,inconclusive: 39.6%
18,C[C@H]1CN([C@@H](C)CO)C(=O)c2cccc(NS(=O)(=O)c3ccc(F)cc3)c2O[C@@H]1CN(C)Cc1ccc(-c2ccccc2)cc1,inconclusive: 39.1%
19,CN(C)C(=O)C[C@H]1CC[C@H]2[C@@H](COC[C@@H](O)CN2CC2CC2)O1,inconclusive: 29.6%
20,COc1cccc(-c2ccc3c(c2)[C@@H]2[C@@H](CCN2C(=O)c2ccc(F)cc2)[C@H](CO)N3C)c1,active: 23.9%
21,C/C=C/c1ccc2c(c1)O[C@H](CN(C)C(=O)C1CCOCC1)[C@@H](C)CN([C@H](C)CO)S2(=O)=O,inconclusive: 24.3%
22,COc1ccc(NC(=O)c2cc(S(=O)(=O)N3CCCCC3)ccc2C)cc1S(=O)(=O)N1CCOCC1,inconclusive: 22.7%
23,C[C@H]1CN([C@@H](C)CO)C(=O)Cc2cc(NC(=O)CCC(F)(F)F)ccc2O[C@H]1CN(C)Cc1ccncc1,inconclusive: 55.5%

# Quoted at random: three entries already listed.
row,SMILES,CPE inhibition
19,CN(C)C(=O)C[C@H]1CC[C@H]2[C@@H](COC[C@@H](O)CN2CC2CC2)O1,inconclusive: 29.6%
20,COc1cccc(-c2ccc3c(c2)[C@@H]2[C@@H](CCN2C(=O)c2ccc(F)cc2)[C@H](CO)N3C)c1,active: 23.9%
7,Cc1ccc2nc(COC(=O)c3ccc(Cl)nc3)cc(=O)n2c1,inconclusive: 67.1%
